Experimental data as given in patent publication US20240279334A1 (AMBERSTONE BIOSCIENCES, published 2024).
Residue numbers refer to the chain shown, from its start. No constants are given. Whether binding was seen depends on the method and setting. Some binding calls cover weakened binding; strength is not graded here. Blank lines part the entries; values can stand above or below the binder they belong to.

Protein sequences, listed by entry. Tags and fused reporters are not part of them. Residues count along the entry.
UniProt P07766, residues 23-207: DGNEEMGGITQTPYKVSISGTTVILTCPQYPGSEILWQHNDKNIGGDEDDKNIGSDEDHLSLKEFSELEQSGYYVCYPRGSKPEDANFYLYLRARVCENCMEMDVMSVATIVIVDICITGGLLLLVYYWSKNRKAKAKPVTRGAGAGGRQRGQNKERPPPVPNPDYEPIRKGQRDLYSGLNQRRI

Assays:
[1] = target: human CD3 on T cells (Jurkat reporter cells, human primary T cells) (human) (UniProt P07766); experiment: flow cytometry, human primary T cells (per the legend); % Cell surface binding at pH 6.0, 6.6 and 7.4; Fab concentration not shown on the sheet
[2] = target: human CD3 on T cells (Jurkat reporter cells, human primary T cells) (human) (UniProt P07766); experiment: flow cytometry on Jurkat or human primary T cells (FIG. 7)
[3] = target: human CD3 on T cells (Jurkat reporter cells, human primary T cells) (human) (UniProt P07766); experiment: flow cytometry, Jurkat cells; % Cell surface binding at pH 6.0, 6.6 and 7.4; Fab concentration not shown on the sheet
[4] = target: human CD3 on T cells (Jurkat reporter cells, human primary T cells) (human) (UniProt P07766); experiment: flow cytometry, Fab on Jurkat reporter cells and human primary T cells
[5] = target: human CD3 on T cells (Jurkat reporter cells, human primary T cells) (human) (UniProt P07766); experiment: flow cytometry, human primary T cells (per the legend); Mean Fluorescence Intensity at pH 6.0, 6.6 and 7.4; Fab concentration not shown on the sheet
[6] = target: human CD3 on T cells (Jurkat reporter cells, human primary T cells) (human) (UniProt P07766); experiment: flow cytometry, human primary T cells; % Cell surface binding at pH 6.0, 6.6 and 7.4; Fab concentration not shown on the sheet
[7] = target: human CD3 on T cells (Jurkat reporter cells, human primary T cells) (human) (UniProt P07766); experiment: flow cytometry, Fab on Jurkat or human primary T cells (FIG. 7)
[8] = target: human CD3 on T cells (Jurkat reporter cells, human primary T cells) (human) (UniProt P07766); experiment: flow cytometry, Fab on human primary T cells (FIG. 48 B and C)
[9] = target: human CD3 on T cells (Jurkat reporter cells, human primary T cells) (human) (UniProt P07766); experiment: flow cytometry, Fab on human primary T cells (% of cells and MFI)

- binding [1]: binds
- binding [2]: binds
- binding [3]: binds
- binding [4]: binds
- binding [5]: binds
- binding [6]: binds
B1: h10.v1 (Fab) (Fab, V domains shown)
VH: EVQLVQSGAEVKKPGASVKVSCKASGYTFTSYYVHWVRQAPGQGLEWIGWIYPGDFNTKFNEKFKGRVTLTADTSASTAYMELSSLRSEDTAVYYCARDAYSYYYFDYWGQGTLVTVSS
VL: DIVMTQSPDSLAVSLGERATINCKSSQSLLNSRTRKNYLAWYQQKPGQPPKLLIYWATTRDSGVPDRFSGSGSGTDFTLTISSLQAEDVAVYYCIQSYTTRTFGGGTKVEIK
notes: Tested as a Fab; the Fab constant domains are not; also called non-pH-selective conventional control clone; conventional anti-CD3 control antibody

- binding [7]: binds
- binding [3]: binds
- binding [4]: binds
- binding [6]: binds
B2: h10.v27 (Fab) (Fab, V domains shown)
VH: B1 VH with V34Y, A100H, S102G
VL: B1 VL with K36H, T100G
notes: Tested as a Fab

- binding [1]: binds
- binding [8]: binds
- binding [5]: binds
- binding [9]: binds
B3: h10.v23 (Fab) (Fab, V domains shown)
VH: B1 VH with A100H, S102G
VL: B1 VL with K36H, D61A, T100G
notes: Purified and used as a Fab; also called anti-CD3 clone h10.v23
